Values from PubChem BioAssay AID1224826 (NIAID, 2016).

Screen: 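Knock-downs that raise or lower Tnf reporter signal after endotoxin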 (primary screen)
Cell system: RAW264.7 G9 macrophages from mouse bearing reporters for p65 (GFP) and the Tnf promoter (mCherry)
Reagent: siRNA pool against mouse genes, 100 nM
Timing: 16 h of LPS stimulation, after 2 days of siRNA transfection
Conditions: bacterial lipopolysaccharide (Salmonella minnesota R595), 10 ng/ml
Detection: 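Nuclear mCherry signal of the Tnf promoter reporter measured by imaging after background removal, scaled to each plate median and turned into robust z-scores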
Direction: Tnf reporter robust z-score: higher = stronger Tnf promoter reporter signal after LPS; Tnf reporter intensity: higher = stronger Tnf promoter reporter signal
Call rule: 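a well counts as active at a score of -1.3 or below (Tlr4 knock-down control median) or above 3 (raised signal); controls and wells holding fewer than 50 cells are excluded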
Calls: active = Tnf reporter clearly lowered or raised; inactive = no clear change in Tnf reporter
In all, the deposit lists about 17,000 reagents; this is a part drawn at random. About 1,110 of them (6.6%) count as active. 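Active means lowered or raised reporter signal; replicate intensities are raw and not normalised per plate.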 Entries without a mark were called inactive. Reagent sequences are not shown.

| gene knocked down | Tnf reporter robust z-score | fewer than 50 cells in well | Tnf reporter intensity, replicate 1 | Tnf reporter intensity, replicate 2 |
| --- | --- | --- | --- | --- |
| Zfp94 | -1.95 (active) | enough cells in well | 80.4 | 77.2 |
| Ibsp | 1.06 | enough cells in well | 286 | 287 |
| Tmem107 | -0.54 | enough cells in well | 223 | 60.6 |
| Atg4b | -0.93 | enough cells in well | 144 | 87.3 |
| Gbe1 | 0.13 | enough cells in well | 296 | 220 |
| Clip2 | 0.43 | enough cells in well | 262 | 239 |
| Foxd3 | -0.54 | enough cells in well | 210 | 192 |
| Or2l5 | 1.72 | enough cells in well | 239 | 222 |
| Etl4 | 1.92 | enough cells in well | 238 | 284 |
| Gpld1 | -0.99 | enough cells in well | 173 | 53.8 |
| Scgb2b2 | 2.37 | enough cells in well | 398 | 311 |
| Nt5c3b | 1.04 | enough cells in well | 208 | 130 |
| Plin2 | -0.31 | enough cells in well | 226 | 129 |
| Slc16a14 | 2.99 | enough cells in well | 183 | 225 |
| Ddit3 | -0.82 | enough cells in well | 151 | 167 |
| Foxe3 | -0.28 | enough cells in well | 278 | 171 |
| Ormdl1 | -0.22 | enough cells in well | 120 | 207 |
| Hsd3b7 | -0.36 | enough cells in well | 166 | 118 |
| Pebp1 | 0.27 | enough cells in well | 292 | 176 |
| Or5p66 | – | fewer than 50 cells per well; well left out of calls | 39.8 | 44.1 |
| Zer1 | – | fewer than 50 cells per well; well left out of calls | 55.7 | 86.7 |
| Dnaja4 | -0.01 | enough cells in well | 240 | 197 |
| B230219D22Rik | -0.82 | enough cells in well | 122 | 120 |
| Rbm8a | 1.67 | enough cells in well | 251 | 148 |
| Ccl19 | 0.22 | enough cells in well | 268 | 219 |
| Stab1 | -0.88 | enough cells in well | 69.8 | 70.2 |
| Parp11 | 0.19 | enough cells in well | 176 | 168 |
| Aarsd1 | 2.44 | enough cells in well | 277 | 100 |
| Adamts19 | 1.33 | enough cells in well | 236 | 254 |
| Or56a3 | 1.44 | enough cells in well | 159 | 176 |
| Ric1 | 0.15 | enough cells in well | 144 | 129 |
| Arhgef25 | -1.28 | enough cells in well | 117 | 87.8 |
| Igf2bp3 | -0.03 | enough cells in well | 231 | 190 |
| Pitx2 | 0.74 | enough cells in well | 297 | 249 |
| Pcdha9 | 0.18 | enough cells in well | 188 | 111 |
| Plpp7 | 1.39 | enough cells in well | 292 | 225 |
| Cuta | – | fewer than 50 cells per well; well left out of calls | 154 | 29.4 |
| Cacna1g | 0.77 | enough cells in well | 138 | 220 |
| Pcolce2 | -0.55 | enough cells in well | 120 | 108 |
| Plekhb2 | 0.31 | enough cells in well | 131 | 156 |
| Bcl2a1c | – | fewer than 50 cells per well; well left out of calls | 63.8 | 75.6 |
| Ehd3 | -0.8 | enough cells in well | 123 | 93 |
| Agpat3 | -0.15 | enough cells in well | 165 | 208 |
| Rita1 | 1.07 | enough cells in well | 375 | 99.5 |
| Lactb2 | 2.61 | enough cells in well | 374 | 238 |
| Dtx2 | -0.71 | enough cells in well | 194 | 139 |
| Tpmt | 0.27 | enough cells in well | 263 | 236 |
| Pdpk1 | 0.3 | enough cells in well | 185 | 205 |
| Marco | -0.21 | enough cells in well | 254 | 183 |
| Gcdh | -0.1 | enough cells in well | 249 | 227 |
| Acsm1 | -0.11 | enough cells in well | 114 | 148 |
| Gtf2h4 | 0.71 | enough cells in well | 309 | 301 |
| Hmgxb4 | -1.5 (active) | enough cells in well | 107 | 102 |
| Armh3 | -0.13 | enough cells in well | 184 | 167 |
| Or12k5 | -0.45 | enough cells in well | 177 | 85.9 |
| Dusp28 | -0.29 | enough cells in well | 255 | 36.4 |
| C1ql1 | 0.58 | enough cells in well | 142 | 182 |
| Or6b1 | – | fewer than 50 cells per well; well left out of calls | 31.7 | 77.9 |

Quoted from the entries so far (2 entries):
| gene knocked down | Tnf reporter robust z-score | fewer than 50 cells in well | Tnf reporter intensity, replicate 1 | Tnf reporter intensity, replicate 2 |
| --- | --- | --- | --- | --- |
| Armh3 | -0.13 | enough cells in well | 184 | 167 |
| Or12k5 | -0.45 | enough cells in well | 177 | 85.9 |
